PubChem BioAssay AID1159578, Peter MacCallum Cancer Centre, 2015
In all, the deposit lists about 18,000 reagents; below is a random part of them. About 1,030 of all reagents (5.7%) were called active. 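Inactive calls also include pools with fewer than 3300 nuclei, whose migration was not assessed.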 Raw values are not corrected between plates. Reagent sequences are not shown.

- Aim: 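siRNA pools altering how lymphatic endothelial cells close a scratch wound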 (primary screen)
- Cells: human lymphatic endothelial cells
- Knock-down reagent: siRNA pool against human genes, 40 nM
- Timing: 48 h after transfection
- Measured: 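Cells stained with dye and imaged after a scratch; covered wound area and nuclei counted, duplicates averaged, migration set against mock wells and turned into a robust z-score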
- Direction: migration robust z-score: higher = faster migration into the scratch; migration relative to mock: higher = more scratch area covered than mock; nuclei per well: higher = more cells in the well
- Active means: 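Pools averaging fewer than 3300 nuclei are never called; remaining pools count as changed when migration robust z lies outside -2 to 2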
- Calls: active = migration changed; inactive = no migration change, or too few cells

gene	migration robust z-score	migration class with cell-count check	migration relative to mock	nuclei per well, duplicate mean	outcome
ENAH	0.26	migration z between -2 and 2; enough cells	0.95	5553	inactive
TNFSF9	0.54	migration z between -2 and 2; enough cells	1.04	5796	inactive
FAM216B	0.22	migration z between -2 and 2; enough cells	0.94	6258	inactive
TBC1D16	0.62	migration z between -2 and 2; enough cells	1.04	5800	inactive
CRIPTO	0.05	migration z between -2 and 2; enough cells	0.82	5686	inactive
FBXO42	-0.21	migration z between -2 and 2; enough cells	0.76	5417	inactive
IL27RA	0.08	migration z between -2 and 2; enough cells	0.82	5247	inactive
ACAD9	1.71	migration z between -2 and 2; enough cells	1.14	5066	inactive
NDST3	-1.35	migration z between -2 and 2; enough cells	0.54	4798	inactive
OR8D4	-0.57	migration z between -2 and 2; enough cells	0.74	5700	inactive
ARPC4	-0.1	migration z between -2 and 2; enough cells	0.78	5476	inactive
GJB7	-0.14	migration z between -2 and 2; enough cells	0.84	5660	inactive
UBC	-3.62	under 3300 nuclei; migration not judged	-0.05	1051	inactive
CDK20	-2.96	migration z below -2; enough cells	0.24	4576	active
ACIN1	0.05	migration z between -2 and 2; enough cells	0.82	5594	inactive
GYPE	0.57	migration z between -2 and 2; enough cells	1.04	6048	inactive
ENTPD3	-1.43	migration z between -2 and 2; enough cells	0.53	5176	inactive
OR2A25	1.59	migration z between -2 and 2; enough cells	1.3	6302	inactive
AFM	0.11	migration z between -2 and 2; enough cells	0.91	5479	inactive
UBE2G1	-0.54	migration z between -2 and 2; enough cells	0.7	6325	inactive
MDP1	1.14	migration z between -2 and 2; enough cells	1.18	5850	inactive
THTPA	-0.42	migration z between -2 and 2; enough cells	0.73	4806	inactive
MRPL16	-0.72	migration z between -2 and 2; enough cells	0.7	5336	inactive
ARMC3	-0.17	migration z between -2 and 2; enough cells	0.84	5023	inactive
SPATA16	0.4	migration z between -2 and 2; enough cells	0.98	5570	inactive
ERICH6	-1.44	migration z between -2 and 2; enough cells	0.52	6282	inactive
FZR1	1.28	migration z between -2 and 2; enough cells	1.21	5496	inactive
PIK3AP1	-2.13	migration z below -2; enough cells	0.4	3867	active
SCNN1A	0.72	migration z between -2 and 2; enough cells	0.94	6012	inactive
ARHGEF10	-0.05	migration z between -2 and 2; enough cells	0.8	6366	inactive
STARD13	-0.73	migration z between -2 and 2; enough cells	0.7	6307	inactive
FAM91A1	-0.12	migration z between -2 and 2; enough cells	0.85	6194	inactive
ATP5F1A	0.18	migration z between -2 and 2; enough cells	0.84	5617	inactive
DCN	-0.51	migration z between -2 and 2; enough cells	0.75	5604	inactive
LCE2D	0.23	migration z between -2 and 2; enough cells	0.95	6450	inactive
WDFY1	0.65	migration z between -2 and 2; enough cells	1.06	5842	inactive
RSRC1	-0.6	under 3300 nuclei; migration not judged	0.72	2830	inactive
CHLSN	0.32	migration z between -2 and 2; enough cells	0.97	6020	inactive
DCUN1D1	0.62	migration z between -2 and 2; enough cells	0.92	5270	inactive
ZSWIM2	-0.65	migration z between -2 and 2; enough cells	0.68	4878	inactive
OS9	-0.12	migration z between -2 and 2; enough cells	0.85	7300	inactive
TM4SF1	-0.6	migration z between -2 and 2; enough cells	0.73	6322	inactive
TBCEL	-1.2	migration z between -2 and 2; enough cells	0.57	6112	inactive
CD6	0.99	migration z between -2 and 2; enough cells	1	4187	inactive
RYR3	-1.48	migration z between -2 and 2; enough cells	0.52	4189	inactive
ST8SIA1	-0.62	migration z between -2 and 2; enough cells	0.68	4913	inactive
FBXL2	-0.49	migration z between -2 and 2; enough cells	0.71	5156	inactive
FANCE	-0.07	migration z between -2 and 2; enough cells	0.86	5693	inactive
ZNF766	-1.07	under 3300 nuclei; migration not judged	0.61	3245	inactive
SDHA	-0.42	migration z between -2 and 2; enough cells	0.72	6162	inactive
KRABD4	-0.61	migration z between -2 and 2; enough cells	0.73	6658	inactive
SYNE4	0	migration z between -2 and 2; enough cells	0.88	6016	inactive
ALG12	0	migration z between -2 and 2; enough cells	0.88	6749	inactive
OAS2	-0.96	migration z between -2 and 2; enough cells	0.62	4346	inactive
PTGIS	-0.24	migration z between -2 and 2; enough cells	0.76	5983	inactive
KCNV1	0.13	migration z between -2 and 2; enough cells	0.83	4736	inactive
PDE11A	0.05	migration z between -2 and 2; enough cells	0.82	6066	inactive

3 consecutive reagents from above:
gene	migration robust z-score	migration class with cell-count check	migration relative to mock	nuclei per well, duplicate mean	outcome
PIK3AP1	-2.13	migration z below -2; enough cells	0.4	3867	active
SCNN1A	0.72	migration z between -2 and 2; enough cells	0.94	6012	inactive
ARHGEF10	-0.05	migration z between -2 and 2; enough cells	0.8	6366	inactive
